Measured values from the supplement of paper PMC4604168 (melanoma cell lines).
This is one part of the list. Repeats are few or missing, and single values can be far off.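 Imaging used 1,536-well plates; nuclei positive for cleaved PARP by antibody were divided by total DNA-stained nuclei to yield the apoptosis fraction. Doses for screening kept most cells viable, and cell lines differ markedly in resting and induced cleaved-PARP levels.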

Assays:
Assay in all cases: cleaved PARP positive nuclei fraction relative to DMSO control; melanoma cells; higher = more apoptosis
Conditions in all cases: library dose: low library concentration; 72 h
[1] = test system: MZ2-MEL
[2] = test system: MeWo
[3] = test system: RPMI7951
[4] = test system: RVH-421
[5] = test system: SkMel28
[6] = test system: SkMel2
[7] = test system: SkMel30
[8] = test system: SkMel5
[9] = test system: UACC257
[10] = test system: UACC62
[11] = test system: WM115
[12] = test system: WM1716
[13] = test system: WM1745
[14] = test system: WM3526
[15] = test system: WM3619
[16] = test system: WM451Lu

Row | Structure (SMILES) | cleaved PARP positive nuclei fraction [1] | cleaved PARP positive nuclei fraction [2] | cleaved PARP positive nuclei fraction [3] | cleaved PARP positive nuclei fraction [4] | cleaved PARP positive nuclei fraction [5] | cleaved PARP positive nuclei fraction [6] | cleaved PARP positive nuclei fraction [7] | cleaved PARP positive nuclei fraction [8] | cleaved PARP positive nuclei fraction [9] | cleaved PARP positive nuclei fraction [10] | cleaved PARP positive nuclei fraction [11] | cleaved PARP positive nuclei fraction [12] | cleaved PARP positive nuclei fraction [13] | cleaved PARP positive nuclei fraction [14] | cleaved PARP positive nuclei fraction [15] | cleaved PARP positive nuclei fraction [16]
1 | Cn1c(=O)n(-c2ccc(C(C)(C)C#N)cc2)c2c3cc(-c4cnc5ccccc5c4)ccc3ncc21 + COc1ccc(COc2ccc(Cc3cnc(N)nc3N)cc2OC)cc1 [GW2580] (first compound 0.004 µM, partner dose 1 µM) | 60.2% | 21.8% | 74.5% | 189% | 130% | 48.4% | 19.5% | 72.5% | 159% | 91.3% | 58.6% | 26.4% | 81.7% | 27.2% | 93.4% | 30.2%
2 | Nc1nc(F)nc2c1ncn2[C@@H]1O[C@H](CO)[C@@H](O)[C@@H]1O [fludarabine] + COC(=O)c1sccc1S(=O)(=O)Nc1ccc(Nc2ccccc2)cc1OC [GSK0660] (first compound 0.2 µM, partner dose 1 µM) | 122% | 285% | 1180% | 91% | 123% | 1780% | 1360% | 255% | 82.2% | 77.9% | 105% | 66.7% | 80.2% | 801% | 90.8% | 148%
3 | CC(C)C[C@H](NC(=O)[C@H](Cc1ccccc1)NC(=O)c1cnccn1)B(O)O [Bortezomib] + C[C@@H]1CCN(C(=O)CC#N)C[C@@H]1N(C)c1ncnc2[nH]ccc12 [CP690550] (first compound 0.001 µM, partner dose 1 µM) | 172% | 26.4% | 124% | 91.3% | 81.3% | 223% | 73.7% | 86.5% | 35.5% | 18.9% | 51.1% | 968% | 119% | 56.9% | 388% | 66.9%
4 | O=C(O)c1ccc2c(c1)nc(Nc1cccc(Cl)c1)c1ccncc12 + O=C(CCCCCCC(=O)Nc1ccccc1)NO [vorinostat] (first compound 0.4 µM, partner dose 0.08 µM) | 40.8% | 47% | 206% | 97.6% | 52.6% | 140% | 70.8% | 26.7% | 194% | 47.2% | 18% | 223% | 73.7% | 80.1% | 159% | 73.6%
5 | CS(=O)(=O)CCNCc1ccc(-c2ccc3ncnc(Nc4ccc(OCc5cccc(F)c5)c(Cl)c4)c3c2)o1 [lapatinib] + CO[C@@H]1[C@H](N(C)C(=O)c2ccccc2)C[C@H]2O[C@]1(C)n1c3ccccc3c3c4c(c5c6ccccc6n2c5c31)C(=O)NC4 [Midostaurin] (first compound 0.8 µM, partner dose 0.08 µM) | 91.8% | 317% | 57.3% | 58.9% | 138% | 128% | 300% | 84.9% | 108% | 221% | 324% | 253% | 188% | 56.5% | 94.9% | 31.1%
6 | O=C(O)c1ccc2c(c1)nc(Nc1cccc(Cl)c1)c1ccncc12 + COc1cc2ncnc(Nc3ccc(Oc4ccccc4)cc3)c2cc1OC [SrcI1] (first compound 0.4 µM, partner dose 2 µM) | 70.7% | 75.5% | 89.4% | 54.7% | 117% | 108% | 29.8% | 70.3% | 138% | 129% | 44% | 96.3% | 97.3% | 90.3% | 92.6% | 42.8%
7 | C[C@@H](Oc1cc(-c2cnn(C3CCNCC3)c2)cnc1N)c1c(Cl)ccc(F)c1Cl [Crizotinib] + O=C1NC(=O)/C(=C/c2ccc(-c3ccc(F)cc3O)o2)S1 [AS252424] (first compound 0.2 µM, partner dose 1 µM) | 95.3% | 108% | 63.6% | 64.8% | 148% | 98.3% | 74.8% | 76.9% | 113% | 52.1% | 112% | 80.3% | 81.5% | 73.6% | 111% | 64%
8 | C=C(c1ccc(C(=O)O)cc1)c1cc2c(cc1C)C(C)(C)CCC2(C)C [Bexarotene] + COc1cc2c(Oc3ccc4[nH]c(C)cc4c3F)ncnc2cc1OCCCN1CCCC1 [cediranib] (first compound 2 µM, partner dose 0.4 µM) | 133% | 51.1% | 76.3% | 98.3% | 74% | 242% | 130% | 322% | 74.8% | 86.7% | 94.7% | 169% | 100% | 103% | 105% | 36.2%
9 | Cc1cc(Nc2cc(N3CCN(C)CC3)nc(/C=C/c3ccccc3)n2)n[nH]1 + Cc1ccc(NC(=O)c2cccc(N(C)C)c2)cc1NC(=O)c1ccc(O)cc1 [ZM336372] (first compound 0.04 µM, partner dose 2 µM) | 274% | 155% | 59.2% | 157% | 630% | 123% | 28.6% | 175% | 284% | 240% | 143% | 183% | 116% | 75.9% | 97.3% | 157%
10 | C[C@@H](Oc1cc(-c2cnn(C3CCNCC3)c2)cnc1N)c1c(Cl)ccc(F)c1Cl [Crizotinib] + Oc1cc(-c2nc(-c3ccccc3)[nH]c2-c2ccncc2)ccc1Cl [L779450] (first compound 0.2 µM, partner dose 0.2 µM) | 203% | 162% | 54.1% | 113% | 203% | 54.3% | 150% | 156% | 136% | 127% | 270% | 368% | 88.8% | 118% | 95.9% | 16.1%
11 | O=C(O)c1ccc2c(c1)nc(Nc1cccc(Cl)c1)c1ccncc12 + CC1(C)NC(=O)N(c2ccc([N+](=O)[O-])c(C(F)(F)F)c2)C1=O [nilutamide] (first compound 0.4 µM, partner dose 1 µM) | 99.6% | 105% | 38.1% | 165% | 46.3% | 131% | 138% | 30.4% | 34.5% | 97.4% | 181% | 151% | 93% | 206% | 89.4% | 86.9%
12 | O=C(O)c1ccc2c(c1)nc(Nc1cccc(Cl)c1)c1ccncc12 + Cc1cc(N2CCOCC2)cc2[nH]c(-c3c(NC[C@@H](O)c4cccc(Cl)c4)cc[nH]c3=O)nc12 [BMS536924] (first compound 0.4 µM, partner dose 0.2 µM) | 163% | 76% | 83.6% | 194% | 125% | 137% | 97% | 43.1% | 138% | 62.4% | 45.2% | 158% | 220% | 62% | 115% | 53.3%
13 | CS(=O)(=O)CCNCc1ccc(-c2ccc3ncnc(Nc4ccc(OCc5cccc(F)c5)c(Cl)c4)c3c2)o1 [lapatinib] + COc1cc2ncnc(Nc3ccc(Oc4ccccc4)cc3)c2cc1OC [SrcI1] (first compound 0.8 µM, partner dose 2 µM) | 131% | 114% | 74.1% | 149% | 199% | 79.2% | 84.1% | 78.2% | 66.5% | 118% | 51.9% | 61.2% | 89.3% | 69.3% | 96.9% | 48.6%
14 | CC(C)C[C@H](NC(=O)[C@H](Cc1ccccc1)NC(=O)c1cnccn1)B(O)O [Bortezomib] + COc1cc2ncnc(Nc3ccc(Oc4ccccc4)cc3)c2cc1OC [SrcI1] (first compound 0.001 µM, partner dose 2 µM) | 277% | 89% | 107% | 404% | 214% | 149% | 33.6% | 67.7% | 162% | 67.6% | 42.4% | 221% | 294% | 94.7% | 1480% | 75.5%
15 | Nc1ncn([C@H]2C[C@H](O)[C@@H](CO)O2)c(=O)n1 [decitabine] + CCCCCCCCCCCC1=C(O)C(=O)C=C(O)C1=O [Embelin] (first compound 0.1 µM, partner dose 1.2 µM) | 83.2% | 59.4% | 228% | 126% | 92.7% | 45.6% | 41.1% | 66.4% | 52.2% | 147% | 143% | 65.4% | 92.1% | 60% | 117% | 78%
16 | CN1CCN(c2ccc3nc(-c4c(N)c5c(F)cccc5[nH]c4=O)[nH]c3c2)CC1 [Dovitinib] + CO[C@@H]1[C@H](N(C)C(=O)c2ccccc2)C[C@H]2O[C@]1(C)n1c3ccccc3c3c4c(c5c6ccccc6n2c5c31)C(=O)NC4 [Midostaurin] (first compound 0.1 µM, partner dose 0.08 µM) | 41.7% | 162% | 278% | 84.6% | 81.4% | 74.8% | 71.1% | 19.8% | 43.1% | 103% | 97.5% | 80.5% | 105% | 40.3% | 80.5% | 121%
17 | C=C(c1ccc(C(=O)O)cc1)c1cc2c(cc1C)C(C)(C)CCC2(C)C [Bexarotene] + CC(C)(C)c1cnc(CSc2cnc(NC(=O)C3CCNCC3)s2)o1 [SNS-032] (first compound 2 µM, partner dose 0.01 µM) | 119% | 108% | 320% | 68.3% | 77.7% | 82% | 67.9% | 78.1% | 94.2% | 68.1% | 57.5% | 46.8% | 162% | 121% | 90.6% | 55.5%
18 | Cc1cc(Nc2cc(N3CCN(C)CC3)nc(/C=C/c3ccccc3)n2)n[nH]1 + Cn1cc(/C=C2\C(=O)Nc3cccnc32)c2ccccc21 [GW441756] (first compound 0.04 µM, partner dose 0.4 µM) | 151% | 144% | 36.6% | 92.5% | 106% | 133% | 72.8% | 183% | 97% | 51.9% | 126% | 84.6% | 103% | 68.6% | 170% | 69.6%
19 | CN1CCN(c2ccc3nc(-c4c(N)c5c(F)cccc5[nH]c4=O)[nH]c3c2)CC1 [Dovitinib] + COc1ccc(-c2ccc3c(N4CCOCC4)nc(N4C[C@@H](C)O[C@@H](C)C4)nc3n2)cc1CO [KU0063794] (first compound 0.1 µM, partner dose 0.02 µM) | 140% | 94.2% | 129% | 79.1% | 75.4% | 69.2% | 46.1% | 136% | 115% | 85.2% | 67.2% | 44.9% | 88.3% | 60.3% | 77.9% | 136%

Copied from the list:
C[C@@H](Oc1cc(-c2cnn(C3CCNCC3)c2)cnc1N)c1c(Cl)ccc(F)c1Cl [Crizotinib] + O=C1NC(=O)/C(=C/c2ccc(-c3ccc(F)cc3O)o2)S1 [AS252424] (first compound 0.2 µM, partner dose 1 µM) – cleaved PARP positive nuclei fraction [15]: 111%
CC(C)C[C@H](NC(=O)[C@H](Cc1ccccc1)NC(=O)c1cnccn1)B(O)O [Bortezomib] + COc1cc2ncnc(Nc3ccc(Oc4ccccc4)cc3)c2cc1OC [SrcI1] (first compound 0.001 µM, partner dose 2 µM) – cleaved PARP positive nuclei fraction [12]: 221%
